{"source": "PubChem BioAssay AID493246 (Drosophila RNAi Screening Center, 2011)", "test": "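Identify essential fly genes by loss of cell viability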 (primary screen)", "system": "Drosophila Kc and S2R+ cells", "reagents": "long dsRNA against Drosophila genes", "read-out": "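Cell number per well after knock-down, printed as raw plate values; calls were based on per-plate z-scores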", "direction": "Kc cell number and S2R+ cell number: higher = more cells remaining", "call rule": "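Active when the per-plate z-score of cell number is 3 or more in the direction of fewer cells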", "note": "The deposit covers about 21,000 reagents; below is a random part of those that have a named target and a result. Over the whole deposit, 429 (2%) were called active. 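Values are raw and not normalised between plates; calls rest on per-plate z-scores that were not deposited.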 Entries without a mark were called inactive. Reagents against one gene are numbered here. Names joined by + are all predicted targets of the reagent. The record does not give: the amount of reagent, the time to read-out."}
The first 2 records, ahead of the listing:
{"Target gene": "CG5641", "reagent no.": 1, "Kc cell number, rep 1": 1.57e6, "Kc cell number, rep 2": 1.66e6, "S2R+ cell number, rep 1": 1.43e6, "S2R+ cell number, rep 2": 1.48e6}
{"Target gene": "Polr3B", "reagent no.": 1, "Kc cell number, rep 1": 1.26e6, "Kc cell number, rep 2": 1.40e6, "S2R+ cell number, rep 1": 1.09e6, "S2R+ cell number, rep 2": 1.16e6}

Results, repeating the preview:
{"Target gene": "CG5641", "reagent no.": 1, "Kc cell number, rep 1": 1.57e6, "Kc cell number, rep 2": 1.66e6, "S2R+ cell number, rep 1": 1.43e6, "S2R+ cell number, rep 2": 1.48e6}
{"Target gene": "Polr3B", "reagent no.": 1, "Kc cell number, rep 1": 1.26e6, "Kc cell number, rep 2": 1.40e6, "S2R+ cell number, rep 1": 1.09e6, "S2R+ cell number, rep 2": 1.16e6}
{"Target gene": "CG42818 + Ca-Ma2d", "reagent no.": 1, "Kc cell number, rep 1": 1.65e6, "Kc cell number, rep 2": 1.78e6, "S2R+ cell number, rep 1": 1.28e6, "S2R+ cell number, rep 2": 1.47e6}
{"Target gene": "H15", "reagent no.": 1, "Kc cell number, rep 1": 1.45e6, "Kc cell number, rep 2": 1.22e6, "S2R+ cell number, rep 1": 1.13e6, "S2R+ cell number, rep 2": 1.25e6}
{"Target gene": "jeb", "reagent no.": 1, "Kc cell number, rep 1": 1.58e6, "Kc cell number, rep 2": 1.51e6, "S2R+ cell number, rep 1": 1.18e6, "S2R+ cell number, rep 2": 1.26e6}
{"Target gene": "jeb", "reagent no.": 2, "Kc cell number, rep 1": 1.54e6, "Kc cell number, rep 2": 1.62e6, "S2R+ cell number, rep 1": 1.17e6, "S2R+ cell number, rep 2": 1.32e6}
{"Target gene": "Lrpprc2", "reagent no.": 1, "Kc cell number, rep 1": 5.04e5, "S2R+ cell number, rep 1": 8.86e5}
{"Target gene": "Hem", "reagent no.": 1, "Kc cell number, rep 1": 1.67e6, "Kc cell number, rep 2": 1.70e6, "S2R+ cell number, rep 1": 1.38e6, "S2R+ cell number, rep 2": 1.37e6}
{"Target gene": "sordd2 + sordd1", "reagent no.": 1, "Kc cell number, rep 1": 6.03e5, "S2R+ cell number, rep 1": 9.03e5}
{"Target gene": "spo", "reagent no.": 1, "Kc cell number, rep 1": 1.30e6, "Kc cell number, rep 2": 1.23e6, "S2R+ cell number, rep 1": 1.22e6, "S2R+ cell number, rep 2": 1.26e6}
{"Target gene": "dikar", "reagent no.": 1, "Kc cell number, rep 1": 1.30e6, "Kc cell number, rep 2": 1.35e6, "S2R+ cell number, rep 1": 1.28e6, "S2R+ cell number, rep 2": 1.21e6}
{"Target gene": "Obp50c + Obp50b", "reagent no.": 1, "Kc cell number, rep 1": 1.52e6, "Kc cell number, rep 2": 1.52e6, "S2R+ cell number, rep 1": 1.03e6, "S2R+ cell number, rep 2": 1.15e6}
{"Target gene": "CG5882", "reagent no.": 1, "Kc cell number, rep 1": 1.52e6, "Kc cell number, rep 2": 1.51e6, "S2R+ cell number, rep 1": 9.55e5, "S2R+ cell number, rep 2": 1.04e6}
{"Target gene": "hrg", "reagent no.": 1, "Kc cell number, rep 1": 1.24e6, "Kc cell number, rep 2": 1.34e6, "S2R+ cell number, rep 1": 9.43e5, "S2R+ cell number, rep 2": 1.10e6}
{"Target gene": "Ssl2", "reagent no.": 1, "Kc cell number, rep 1": 1.55e6, "Kc cell number, rep 2": 1.60e6, "S2R+ cell number, rep 1": 1.11e6, "S2R+ cell number, rep 2": 1.46e6}
{"Target gene": "Sodh1", "reagent no.": 1, "Kc cell number, rep 1": 1.62e6, "Kc cell number, rep 2": 1.66e6, "S2R+ cell number, rep 1": 1.44e6, "S2R+ cell number, rep 2": 1.48e6}
{"Target gene": "CG30015", "reagent no.": 1, "Kc cell number, rep 1": 1.45e6, "Kc cell number, rep 2": 1.44e6, "S2R+ cell number, rep 1": 1.03e6, "S2R+ cell number, rep 2": 1.11e6}
{"Target gene": "CG30015", "reagent no.": 2, "Kc cell number, rep 1": 1.39e6, "Kc cell number, rep 2": 1.39e6, "S2R+ cell number, rep 1": 1.17e6, "S2R+ cell number, rep 2": 1.23e6}
{"Target gene": "CG30015", "reagent no.": 3, "Kc cell number, rep 1": 1.68e6, "Kc cell number, rep 2": 1.64e6, "S2R+ cell number, rep 1": 1.42e6, "S2R+ cell number, rep 2": 1.55e6}
{"Target gene": "CG17996 + Tsen2", "reagent no.": 1, "Kc cell number, rep 1": 1.45e6, "Kc cell number, rep 2": 1.61e6, "S2R+ cell number, rep 1": 1.23e6, "S2R+ cell number, rep 2": 1.34e6}
{"Target gene": "CG11679", "reagent no.": 1, "Kc cell number, rep 1": 4.56e5, "S2R+ cell number, rep 1": 7.11e5}
